The other results are listed elsewhere or left out. The data scatter; read single values as rough.
How the values were obtained:
[1] = compound: ClCC(=O)N[C@@H]1CCCc2ccccc12; experiment: log2 mean competition ratio of IA-DTB cysteine labelling (DMSO/compound) (log2 ratio); higher = stronger cysteine engagement by compound; settings: treatment time: 4 h, cell line lysate: HEK293T
Protocol: (§1)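 IA-DTB competitive cysteine chemoproteomics in HEK293T RIPA lysate. Lysates were treated with compound 29 or 30 at 50 or 200 µM for 4 h, then IA-DTB (500 µM, 1 h), trypsin-digested, NeutrAvidin-enriched and analysed by diaPASEF. Competition ratio = intensity DMSO / intensity compound (n=4 treated, n=64 DMSO); binding: mean log2 CR ≥ 1 and p ≤ 0.05 plus QC filters. Target is the cysteine site.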

Amino acid sequences for entries named in this document (tags omitted). A change or cut given only in a name is not applied to a line headed by its entry. Residues count along the entry.
UniProt Q5TAX3, 1226-1245: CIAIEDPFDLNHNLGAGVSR
UniProt Q8N584: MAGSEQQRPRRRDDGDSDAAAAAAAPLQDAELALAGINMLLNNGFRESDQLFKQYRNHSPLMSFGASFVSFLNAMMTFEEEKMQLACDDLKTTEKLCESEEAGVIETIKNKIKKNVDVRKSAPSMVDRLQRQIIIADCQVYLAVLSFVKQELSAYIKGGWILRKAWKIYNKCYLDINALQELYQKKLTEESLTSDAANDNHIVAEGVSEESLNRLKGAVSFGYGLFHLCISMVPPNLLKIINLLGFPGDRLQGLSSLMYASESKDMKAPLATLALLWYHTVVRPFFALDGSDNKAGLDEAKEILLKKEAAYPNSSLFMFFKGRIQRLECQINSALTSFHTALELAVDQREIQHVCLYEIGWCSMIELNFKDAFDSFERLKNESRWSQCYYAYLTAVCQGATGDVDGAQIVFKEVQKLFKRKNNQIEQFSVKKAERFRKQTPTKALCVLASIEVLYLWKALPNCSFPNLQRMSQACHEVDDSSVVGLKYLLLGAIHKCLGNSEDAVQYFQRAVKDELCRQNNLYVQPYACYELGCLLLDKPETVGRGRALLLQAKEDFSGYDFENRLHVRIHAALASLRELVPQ
UniProt Q5VYS8: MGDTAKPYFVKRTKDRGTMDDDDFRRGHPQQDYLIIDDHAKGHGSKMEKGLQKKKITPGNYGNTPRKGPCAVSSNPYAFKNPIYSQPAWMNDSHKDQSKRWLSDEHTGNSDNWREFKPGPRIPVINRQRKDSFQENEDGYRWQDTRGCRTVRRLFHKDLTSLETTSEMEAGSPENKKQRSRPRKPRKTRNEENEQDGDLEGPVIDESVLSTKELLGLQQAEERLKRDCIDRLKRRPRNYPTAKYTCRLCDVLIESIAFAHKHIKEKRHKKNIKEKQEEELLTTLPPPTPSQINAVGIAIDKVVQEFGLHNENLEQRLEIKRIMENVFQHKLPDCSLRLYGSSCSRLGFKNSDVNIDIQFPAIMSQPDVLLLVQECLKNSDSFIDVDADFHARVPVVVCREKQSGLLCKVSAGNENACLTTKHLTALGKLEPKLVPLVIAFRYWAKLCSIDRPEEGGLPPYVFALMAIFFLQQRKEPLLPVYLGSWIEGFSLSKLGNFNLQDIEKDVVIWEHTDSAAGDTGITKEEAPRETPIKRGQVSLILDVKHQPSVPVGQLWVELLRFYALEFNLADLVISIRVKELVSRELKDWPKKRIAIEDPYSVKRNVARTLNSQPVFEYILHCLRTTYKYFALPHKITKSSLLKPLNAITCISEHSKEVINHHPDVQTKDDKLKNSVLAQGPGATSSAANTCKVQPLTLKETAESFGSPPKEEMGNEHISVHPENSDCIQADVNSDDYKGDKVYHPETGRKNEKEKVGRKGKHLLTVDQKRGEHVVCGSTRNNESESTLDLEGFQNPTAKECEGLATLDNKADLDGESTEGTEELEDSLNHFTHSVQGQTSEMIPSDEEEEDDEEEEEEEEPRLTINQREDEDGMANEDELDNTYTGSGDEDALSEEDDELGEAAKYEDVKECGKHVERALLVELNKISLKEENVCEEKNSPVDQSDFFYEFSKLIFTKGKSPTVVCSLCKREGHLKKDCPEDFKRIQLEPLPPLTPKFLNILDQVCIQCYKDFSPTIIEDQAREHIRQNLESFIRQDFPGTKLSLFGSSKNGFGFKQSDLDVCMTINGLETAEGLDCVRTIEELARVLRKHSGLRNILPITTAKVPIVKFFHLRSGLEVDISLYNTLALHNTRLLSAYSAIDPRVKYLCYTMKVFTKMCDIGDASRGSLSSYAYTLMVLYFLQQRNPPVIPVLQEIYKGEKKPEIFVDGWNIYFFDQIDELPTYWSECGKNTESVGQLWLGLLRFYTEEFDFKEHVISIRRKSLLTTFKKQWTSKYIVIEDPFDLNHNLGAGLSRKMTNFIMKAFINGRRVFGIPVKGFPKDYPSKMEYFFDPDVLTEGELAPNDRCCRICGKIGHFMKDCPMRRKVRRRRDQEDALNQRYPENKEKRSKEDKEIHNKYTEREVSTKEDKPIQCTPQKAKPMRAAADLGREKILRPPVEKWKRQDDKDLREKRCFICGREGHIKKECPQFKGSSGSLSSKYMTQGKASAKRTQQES
UniProt P49815: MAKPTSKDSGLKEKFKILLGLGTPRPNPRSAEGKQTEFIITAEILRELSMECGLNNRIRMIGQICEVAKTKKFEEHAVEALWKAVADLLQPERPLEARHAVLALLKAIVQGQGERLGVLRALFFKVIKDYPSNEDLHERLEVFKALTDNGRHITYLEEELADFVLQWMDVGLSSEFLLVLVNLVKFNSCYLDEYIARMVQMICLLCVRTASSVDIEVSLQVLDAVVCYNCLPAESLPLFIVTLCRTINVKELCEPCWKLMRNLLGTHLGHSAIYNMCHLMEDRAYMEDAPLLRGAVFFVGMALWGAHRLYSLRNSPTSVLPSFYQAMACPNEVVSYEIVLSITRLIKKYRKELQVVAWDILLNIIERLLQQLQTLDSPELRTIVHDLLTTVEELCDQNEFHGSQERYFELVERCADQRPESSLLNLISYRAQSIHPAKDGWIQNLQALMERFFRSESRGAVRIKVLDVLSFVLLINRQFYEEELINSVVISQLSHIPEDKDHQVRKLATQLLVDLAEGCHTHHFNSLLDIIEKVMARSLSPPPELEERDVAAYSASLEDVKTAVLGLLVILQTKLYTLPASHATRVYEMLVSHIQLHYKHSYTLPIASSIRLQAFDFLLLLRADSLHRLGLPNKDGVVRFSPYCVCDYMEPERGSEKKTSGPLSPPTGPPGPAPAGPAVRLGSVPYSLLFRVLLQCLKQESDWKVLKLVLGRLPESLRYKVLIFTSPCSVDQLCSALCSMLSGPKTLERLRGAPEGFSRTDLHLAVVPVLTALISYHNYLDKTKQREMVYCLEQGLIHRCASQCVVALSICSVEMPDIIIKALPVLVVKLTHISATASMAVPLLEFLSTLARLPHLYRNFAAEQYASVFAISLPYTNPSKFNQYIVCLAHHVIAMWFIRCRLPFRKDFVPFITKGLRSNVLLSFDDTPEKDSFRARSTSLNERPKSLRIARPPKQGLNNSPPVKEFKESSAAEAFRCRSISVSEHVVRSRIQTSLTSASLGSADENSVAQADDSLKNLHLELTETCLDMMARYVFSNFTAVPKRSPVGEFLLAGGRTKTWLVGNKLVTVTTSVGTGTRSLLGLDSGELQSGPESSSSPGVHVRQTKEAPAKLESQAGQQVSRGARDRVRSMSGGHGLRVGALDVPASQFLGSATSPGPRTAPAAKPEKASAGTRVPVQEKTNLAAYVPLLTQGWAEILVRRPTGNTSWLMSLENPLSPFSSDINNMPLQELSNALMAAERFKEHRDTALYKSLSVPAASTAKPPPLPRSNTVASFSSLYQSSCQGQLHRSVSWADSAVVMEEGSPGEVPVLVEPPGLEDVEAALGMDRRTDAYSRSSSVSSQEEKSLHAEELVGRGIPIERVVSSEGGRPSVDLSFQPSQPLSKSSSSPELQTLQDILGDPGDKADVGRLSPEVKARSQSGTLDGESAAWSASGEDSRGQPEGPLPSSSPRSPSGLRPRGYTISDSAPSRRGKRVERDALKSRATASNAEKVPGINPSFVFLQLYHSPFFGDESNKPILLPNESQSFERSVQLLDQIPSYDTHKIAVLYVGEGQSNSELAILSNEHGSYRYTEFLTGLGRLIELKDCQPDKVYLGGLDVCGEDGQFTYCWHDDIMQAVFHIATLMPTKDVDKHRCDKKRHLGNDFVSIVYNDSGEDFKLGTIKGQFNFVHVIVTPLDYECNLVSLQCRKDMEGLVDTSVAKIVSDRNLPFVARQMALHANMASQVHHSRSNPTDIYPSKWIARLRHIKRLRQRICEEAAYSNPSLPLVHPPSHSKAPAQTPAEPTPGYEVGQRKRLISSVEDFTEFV
UniProt Q15386: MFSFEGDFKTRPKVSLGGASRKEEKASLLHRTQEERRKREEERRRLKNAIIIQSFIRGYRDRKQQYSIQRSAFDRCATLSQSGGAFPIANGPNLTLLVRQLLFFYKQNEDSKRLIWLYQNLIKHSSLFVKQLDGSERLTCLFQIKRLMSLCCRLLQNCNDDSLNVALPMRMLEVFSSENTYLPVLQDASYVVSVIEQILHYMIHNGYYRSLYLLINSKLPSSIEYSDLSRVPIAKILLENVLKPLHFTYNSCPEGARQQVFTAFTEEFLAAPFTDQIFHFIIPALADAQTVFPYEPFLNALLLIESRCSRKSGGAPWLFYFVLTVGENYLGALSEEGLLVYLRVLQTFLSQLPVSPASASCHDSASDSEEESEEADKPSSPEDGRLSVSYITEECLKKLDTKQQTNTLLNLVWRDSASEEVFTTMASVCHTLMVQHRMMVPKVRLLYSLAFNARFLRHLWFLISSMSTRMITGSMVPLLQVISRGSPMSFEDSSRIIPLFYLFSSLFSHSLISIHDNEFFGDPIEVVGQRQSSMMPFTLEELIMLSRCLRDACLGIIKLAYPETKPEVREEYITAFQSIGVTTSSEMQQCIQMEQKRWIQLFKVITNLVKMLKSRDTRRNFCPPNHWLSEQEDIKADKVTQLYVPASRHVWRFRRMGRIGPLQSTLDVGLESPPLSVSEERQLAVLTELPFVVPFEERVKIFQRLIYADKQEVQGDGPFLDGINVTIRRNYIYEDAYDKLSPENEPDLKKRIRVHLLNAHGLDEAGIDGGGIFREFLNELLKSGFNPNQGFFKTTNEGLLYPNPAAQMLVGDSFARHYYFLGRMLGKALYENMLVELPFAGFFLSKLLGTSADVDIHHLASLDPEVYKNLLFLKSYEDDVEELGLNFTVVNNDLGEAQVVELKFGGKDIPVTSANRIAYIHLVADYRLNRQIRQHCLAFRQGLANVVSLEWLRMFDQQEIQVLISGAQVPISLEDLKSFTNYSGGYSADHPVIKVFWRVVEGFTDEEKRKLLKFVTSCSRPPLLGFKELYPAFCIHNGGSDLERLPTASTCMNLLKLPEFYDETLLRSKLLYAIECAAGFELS
UniProt Q8IWV7, 855-877: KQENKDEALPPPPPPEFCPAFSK
UniProt Q7Z2T5, 303-324: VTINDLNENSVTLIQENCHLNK
UniProt Q9UNY4, 195-214: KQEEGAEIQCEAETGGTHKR
UniProt Q8IZ69, 267-286: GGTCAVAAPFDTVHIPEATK
UniProt P33981: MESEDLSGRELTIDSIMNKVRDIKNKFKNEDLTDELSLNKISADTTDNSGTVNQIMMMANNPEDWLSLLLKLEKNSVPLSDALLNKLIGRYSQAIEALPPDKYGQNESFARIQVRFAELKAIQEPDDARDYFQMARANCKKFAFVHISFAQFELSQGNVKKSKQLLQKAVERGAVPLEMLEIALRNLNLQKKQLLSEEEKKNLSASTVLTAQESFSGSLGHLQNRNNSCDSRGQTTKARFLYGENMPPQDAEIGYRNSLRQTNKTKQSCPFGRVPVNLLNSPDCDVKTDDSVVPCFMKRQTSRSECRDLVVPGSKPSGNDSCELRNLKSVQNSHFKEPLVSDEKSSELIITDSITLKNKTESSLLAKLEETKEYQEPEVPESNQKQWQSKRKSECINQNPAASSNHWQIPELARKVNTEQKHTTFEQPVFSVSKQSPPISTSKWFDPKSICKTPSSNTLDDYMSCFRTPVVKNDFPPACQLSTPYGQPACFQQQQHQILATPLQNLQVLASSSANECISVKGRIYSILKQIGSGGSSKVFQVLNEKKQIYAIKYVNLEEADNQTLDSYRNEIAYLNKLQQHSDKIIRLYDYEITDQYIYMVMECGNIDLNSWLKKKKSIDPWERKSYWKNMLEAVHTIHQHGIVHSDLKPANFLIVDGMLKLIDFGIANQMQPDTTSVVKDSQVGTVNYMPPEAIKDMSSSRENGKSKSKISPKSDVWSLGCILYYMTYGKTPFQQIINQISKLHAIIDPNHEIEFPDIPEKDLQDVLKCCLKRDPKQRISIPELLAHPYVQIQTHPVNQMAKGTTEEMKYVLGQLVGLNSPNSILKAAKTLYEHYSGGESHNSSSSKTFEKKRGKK
UniProt Q86VQ6, whole entry, looked up: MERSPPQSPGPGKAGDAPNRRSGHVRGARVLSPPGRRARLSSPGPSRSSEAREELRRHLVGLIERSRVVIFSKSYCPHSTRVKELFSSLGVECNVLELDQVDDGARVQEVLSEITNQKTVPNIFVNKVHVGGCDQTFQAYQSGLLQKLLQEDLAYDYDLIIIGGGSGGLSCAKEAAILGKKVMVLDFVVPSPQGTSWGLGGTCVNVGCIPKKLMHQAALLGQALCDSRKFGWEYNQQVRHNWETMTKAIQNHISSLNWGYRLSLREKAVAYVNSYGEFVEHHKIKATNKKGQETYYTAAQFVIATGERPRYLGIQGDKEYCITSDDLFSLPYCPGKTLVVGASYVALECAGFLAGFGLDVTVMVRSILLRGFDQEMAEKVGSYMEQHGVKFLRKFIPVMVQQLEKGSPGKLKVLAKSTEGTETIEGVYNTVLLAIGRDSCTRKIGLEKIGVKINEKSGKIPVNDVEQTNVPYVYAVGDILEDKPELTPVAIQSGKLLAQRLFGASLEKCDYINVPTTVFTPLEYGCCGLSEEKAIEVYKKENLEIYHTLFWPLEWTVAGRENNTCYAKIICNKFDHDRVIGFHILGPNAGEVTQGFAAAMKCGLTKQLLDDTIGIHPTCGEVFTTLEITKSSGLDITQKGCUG
UniProt P62253, 86-110: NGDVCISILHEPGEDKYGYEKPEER

[2] = compound: ClCC(=O)N[C@H]1CCCc2ccccc12; experiment: as above; settings: treatment time: 4 h, cell line lysate: HEK293T
Protocol: as §1

Target | log2 mean competition ratio ([1]; 50 µM) | log2 mean competition ratio ([1]; 200 µM) | log2 mean competition ratio ([2]; 50 µM) | log2 mean competition ratio ([2]; 200 µM)
TUT4 C572 (UniProt Q5TAX3) | 0.0578 | 0.00842 | -0.095 | -0.167
TTC39C C517 (UniProt Q8N584) | 0.0406 | 0.0856 | -0.0716 | 0.0665
TUBGCP6 C529 (UniProt Q96RT7) | 0.197 | 0.047 | -0.0721 | 0.0675
UBE2R2 C191 (UniProt Q712K3) | 0.0215 | -0.106 | -0.353 | -0.167
TUBB4B C12 (UniProt P68371) | 0.175 | -0.314 | -0.0954 | -0.099
UBFD1 C185 (UniProt O14562) | -0.141 | 0.191 | -0.165 | 0.0594
UBN1 C711 (UniProt Q9NPG3) | -0.0926 | -0.0895 | -0.0918 | -0.0702
TTI2 C484 (UniProt Q6NXR4) | -0.0532 | 0.205 | -0.0307 | 0.148
TTC33 C55 (UniProt Q6PID6) | -0.211 | -0.133 | -0.0287 | 0.00188
TUT7 C1413 (UniProt Q5VYS8) | -0.181 | -0.0883 | -0.00424 | -0.101
UBE2E3;UBE2E2 C81;(C75) | -0.46 | -0.3 | 0.067 | -0.172
TUT7 C690 (UniProt Q5VYS8) | 0.117 | 0.0545 | -0.062 | 0.272
UBL5 C18 (UniProt Q9BZL1) | -0.171 | 0.0352 | -0.42 | 0.00245
TUBGCP3 C762 (UniProt Q96CW5) | 0.295 | 0.0594 | 0.0968 | -0.156
TUSC3 C123 (UniProt Q13454) | -0.22 | -0.335 |  | -0.332
TUBA3C;TUBA3D C347;(C347) | 0.424 | -0.101 | 0.626 | 0.186
TRMU C101 (UniProt O75648) | -0.138 | -0.0795 | -0.482 | 0.183
TSEN34 C291 (UniProt Q9BSV6) | -0.0777 | -0.131 | 0.0835 | 0.0218
TSC2 C65 (UniProt P49815) | 0.162 | -0.0365 | -0.356 | 0.0564
UBE2Z C243 (UniProt Q9H832) | -0.429 | -0.222 | 0.303 | -0.349
TTC37 C1031 (UniProt Q6PGP7) | 0.136 | -0.0867 | -0.367 | -0.0728
TRUB1 C269 (UniProt Q8WWH5) | 0.0984 | -0.147 | 0.37 | -0.146
UBR4 C779 (UniProt Q5T4S7) | -0.0151 | -0.0444 | 0.309 | 0.0292
UACA C980 (UniProt Q9BZF9) | -0.422 | -0.033 | -0.118 | 0.0714

Target | log2 mean competition ratio ([1]; 50 µM) | log2 mean competition ratio ([1]; 200 µM) | log2 mean competition ratio ([2]; 50 µM) | log2 mean competition ratio ([2]; 200 µM)
UBE2E1 C67 (UniProt P51965) | -0.129 | -0.259 | -0.0243 | -0.175
UBE3C C395 (UniProt Q15386) | -0.136 | 0.0109 | -0.427 | -0.0597
UBN2 C515 (UniProt Q6ZU65) | 0.0264 | -0.0317 | 0.246 | -0.0602
TTC27 C188 (UniProt Q6P3X3) | 0.364 | 0.104 | -0.0234 | 0.152
TSC1 C259 (UniProt Q92574) | -0.264 | 0.129 | -0.323 | 0.0138
UBE3C C158 (UniProt Q15386) | -0.181 | 0.111 | 0.392 | 0.162
TRMT10B C101 (UniProt Q6PF06) | 0.158 | 0.274 | 0.528 | -0.0704
TYW1B;TYW1 C169;(C215) | 0.0388 | 0.264 | 0.094 | 0.301
TUBGCP3 C274 (UniProt Q96CW5) | -0.0407 | 0.00287 | -0.29 | -0.0938
UBN1 C467 (UniProt Q9NPG3) | 0.0054 | 0.265 | 0.0228 | 0.0228
UBR1 C872 (UniProt Q8IWV7) | 0.0248 | 0.143 | -0.273 | 0.414
TTC13 C110 (UniProt Q8NBP0) | -0.06 | -0.0346 | -0.00289 | 0.188
TUT4 C458 (UniProt Q5TAX3) | 0.106 | 0.0253 | 0.461 | 0.0153
TRMT1L C419 (UniProt Q7Z2T5) | 0.248 | -0.103 | -0.058 | -0.143
TTF2 C204 (UniProt Q9UNY4) | 0.221 | -0.00893 | 0.19 | -0.103
UBR1 C279 (UniProt Q8IWV7) | -0.0275 | -0.0616 | -0.249 | -0.196
TSC22D2 C63 (UniProt O75157) | -0.165 | 0.27 | -0.178 | 0.334
TSC2 C791 (UniProt P49815) | 0.173 | 0.242 | -0.361 | -0.241
UBR4 C104 (UniProt Q5T4S7) | -0.166 | 0.0736 | -0.303 | 0.0286
TUT4 C746 (UniProt Q5TAX3) | -0.24 | 0.0563 | 0.198 | -0.137
UBE3A C83 (UniProt Q05086) | 0.18 | -0.165 | 0.212 | -0.189
UBAP2 C10 | 0.332 | 0.285 | -0.367 | 0.236
TRNAU1AP C157 (UniProt Q9NX07) | 0.0876 | 0.147 | -0.388 | -0.227
TTC28 C726 (UniProt Q96AY4) | 0.599 | 0.116 | 0.265 | 0.218

Record cards (already shown). Order of values: log2 mean competition ratio ([1]; 50 µM) | log2 mean competition ratio ([1]; 200 µM) | log2 mean competition ratio ([2]; 50 µM) | log2 mean competition ratio ([2]; 200 µM)
UBE2E1 C67 (UniProt P51965) is listed with -0.129 | -0.259 | -0.0243 | -0.175
TRMT10B C101 (UniProt Q6PF06) is listed with 0.158 | 0.274 | 0.528 | -0.0704
TSC2 C65 (UniProt P49815) is listed with 0.162 | -0.0365 | -0.356 | 0.0564
UBE3C C395 (UniProt Q15386) is listed with -0.136 | 0.0109 | -0.427 | -0.0597

Next part:

Target | log2 mean competition ratio ([1]; 50 µM) | log2 mean competition ratio ([1]; 200 µM) | log2 mean competition ratio ([2]; 50 µM) | log2 mean competition ratio ([2]; 200 µM)
TRMT10C C123 (UniProt Q7L0Y3) | -0.0845 | -0.175 | -0.423 | -0.142
TTF1 C708 (UniProt Q15361) | -0.323 | 0.143 | -0.363 | 0.387
TRMT2A C463 (UniProt Q8IZ69) | 0.241 | 0.027 | 0.186 | -0.0736
TTK C269 (UniProt P33981) | -0.222 | 0.54 | 0.0586 | 0.615
TUBGCP6 C615 (UniProt Q96RT7) | -0.0529 | 0.578 | -0.143 | 0.282
TTC37 C329 (UniProt Q6PGP7) | 0.113 | 0.071 | 0.204 | 0.0338
TUT4 C928 (UniProt Q5TAX3) | -0.0991 | 0.0404 | -0.0835 | -0.11
TTK C322 (UniProt P33981) | -0.161 | 0.296 | -0.095 | 0.166
TRMT2A C270 (UniProt Q8IZ69) | 0.296 | 0.0046 | 0.337 | 0.0592
TRRAP C350 (UniProt Q9Y4A5) | 0.0763 | -0.2 | 0.582 | -0.187
TTC38 C367 (UniProt Q5R3I4) | -0.047 | -0.418 | 0.0125 | -0.284
TRMT1L C320 (UniProt Q7Z2T5) | -0.0966 | -0.0676 | 0.329 | -0.252
TSHZ1 C363 | -0.048 | -0.358 | 0.206 | -0.646
TTK C295 (UniProt P33981) | 0.0306 | -0.0135 | 0.086 | 0.108
TSPAN2 C164 | -0.159 | -0.0842 | -0.369 | 0.26
TXNRD3 C76 (UniProt Q86VQ6) | 0.651 | 0.963 | 0.633 | 0.151
TUT4 C20 (UniProt Q5TAX3) | -0.0759 | -0.201 | 0.153 | 0.0555
TTC28 C274 (UniProt Q96AY4) | -0.104 | 0.453 | -0.105 | 0.372
UACA C125 (UniProt Q9BZF9) | 0.123 | -0.178 | -0.213 | -0.17
UACA C1258 (UniProt Q9BZF9) | -0.5 | 0.303 | -0.77 | 0.138
TUT7 C934 (UniProt Q5VYS8) | -0.212 | 0.0207 | -0.287 | -0.0688
UBR1 C180 (UniProt Q8IWV7) | -0.362 | 0.278 | -0.321 | 0.157
TRRAP C3555 (UniProt Q9Y4A5) | -0.0366 | 0.136 | 0.286 | 0.148
UBE2O C375 | 0.0278 | 0.026 | -0.0243 | 0.0313

Target | log2 mean competition ratio ([1]; 50 µM) | log2 mean competition ratio ([1]; 200 µM) | log2 mean competition ratio ([2]; 50 µM) | log2 mean competition ratio ([2]; 200 µM)
UBR4 C4946 (UniProt Q5T4S7) | -0.125 | 0.106 | -0.324 | -0.139
TSPAN6 C183 (UniProt O43657) | -0.133 | -0.17 | -0.184 | 0.195
UBE2O C370 | 0.0383 | -0.0266 | 0.136 | 0.175
TRMT11 C5 (UniProt Q7Z4G4) | 0.256 | -0.38 | 0.496 | -0.283
TSC1 C822 (UniProt Q92574) | 0.582 | 0.299 | 0.102 | 0.0353
UBE4A C79 (UniProt Q14139) | 0.167 | 0.0322 | 0.0216 | -0.174
TSFM C315 (UniProt P43897) | -0.0544 | -0.223 | 0.343 | -0.107
UBA2 C173 | -0.103 | -0.254 | 1.09 | 0.0826
TTC1 C8 (UniProt Q99614) | -0.103 | -0.357 | 0.127 | -0.0601
TYK2 C402 (UniProt P29597) | -0.164 | 0.0066 | -0.295 | -0.0665
TYW3 C49 (UniProt Q6IPR3) | 0.457 | 0.0359 | 0.573 | -0.0886
TUBA1B C347 (UniProt P68363) | 0.178 | -0.118 | 0.62 | 0.0886
UBE2G1 C90 (UniProt P62253) | 0.262 | -0.0827 | -0.321 | -0.177
TTLL12 C612 | 0.224 | -0.278 | 0.942 | -0.186
UBR4 C1900 (UniProt Q5T4S7) | 0.499 | 0.254 | 0.0423 | 0.0426
UBE4B C534 (UniProt O95155) | -0.00408 | -0.241 | -0.229 | -0.0661
TUT4 C1226 (UniProt Q5TAX3) | -0.105 | 0.73 | -0.494 | 0.0705
UAP1 C293 (UniProt Q16222) | -0.249 | -0.0487 | -0.129 | -0.116
TTC37 C1349 (UniProt Q6PGP7) | -0.156 | -0.0392 | -0.0591 | 0.0739
TRMT44 C194 (UniProt Q8IYL2) | 0.299 | 0.126 | 0.266 | -0.146
TUT4 C1109 (UniProt Q5TAX3) | -0.227 | 0.189 | -0.047 | 0.468
UBA1 C234 (UniProt P22314) | -0.204 | 0.29 | -0.159 | 0.377
TTI2 C339 (UniProt Q6NXR4) | 0.0438 | -0.0036 | -0.103 | -0.292
TTK C229 (UniProt P33981) | -0.0814 | 0.283 | -0.0524 | 0.259

Source: the supplement of paper PMC11732987, “Enantioselective OTUD7B fragment discovery through chemoproteomics screening and high-throughput optimisation” (Communications Chemistry, 2025)
